From PubChem BioAssay AID540276 (National Center for Advancing Translational Sciences (NCATS), 2011)
Screen size: about 300,000 compounds; about 5,400 (1.8%) were called active. The inconclusive results got no clear call from the source; some entries with a clear call stand among them for comparison. The call rests on the fitted dose curve; tested in HEK293 cells. A potency beside an inconclusive call is a rough fit, not a confirmed value.
Potency means the concentration at half of the fitted maximal effect.

Experiment: qHTS for inhibitors of binding or entry into cells for Marburg Virus
Details: Marburg virus pseudotyped entry inhibition, cell reporter; series mostly up to 37.8 µM
In the case of `COc1ccc(C2C3=C(CC(C)(C)CC3=O)Nc3n[nH]c(C)c32)cc1` (configuration not stated), the Potency was inconclusive: 2.82 µM [inhibitor, full curve, poor fit].
For `CNC(=O)c1nnsc1S(=O)(=O)c1ccc(Cl)cc1`, the Potency was active: 2.82 µM.
With `CN(C)S(=O)(=O)c1cccc(NC(=O)c2cc3ccccc3o2)c1` the Potency was inconclusive: 25.9 µM [activator, single point].
In the case of `COc1ccc(C(CNC(=O)Cc2cccs2)N(C)C)cc1` (configuration not stated), the Potency was inconclusive: 6.31 µM [activator, single point].
In the case of `CCCN(CCC)CCCOC(=O)c1ccc(Cl)cc1Cl`, the Potency was inconclusive: 35.5 µM [inhibitor, single point].
In the case of `COc1ccc(OC)c(-c2cc(C(=O)Nc3cnn(Cc4ccc(Cl)cc4Cl)c3)no2)c1`, the Potency was “inactive”.
In the case of `O=C(CC1SC(=Nc2ccccc2)N(Cc2ccccn2)C1=O)Nc1ccc(Br)cc1` (configuration not stated), the Potency was inconclusive: 9.2 µM [inhibitor, partial curve, poor fit].
With `O=C(CCc1nc2ccccc2c(=O)[nH]1)OCc1nnc(-c2ccccc2)o1` the Potency was inconclusive: 35.5 µM [activator, single point].
For `O=C(Nc1ccc(Cl)cc1C(=O)c1ccccc1)c1ccco1`, the Potency was inconclusive: 32.6 µM [inhibitor, single point].
With `COc1ccc(C(=O)NC(=S)N2CC(C)OC(C)C2)cc1OC` (configuration not stated) the Potency was “inactive”.
In the case of `Cc1cccc(OCC(O)CN2CCN(CCN3C(=O)c4cccc5cccc(c45)C3=O)CC2)c1C` (configuration not stated), the Potency was inconclusive: 13 µM [inhibitor, partial curve, poor fit].
For `COc1cccc(C(=O)Nc2ccc3c(c2)C(=O)c2ccccc2C3=O)c1`, the Potency was inconclusive: 20.6 µM [inhibitor, partial curve, poor fit].
With `O=C1/C(=C/c2ccco2)SC(=S)N1c1cccnc1` the Potency was inconclusive: 22.4 µM [inhibitor, single point].
With `Fc1ccc(-c2nnc(-n3nnc4ccccc43)c3ccccc23)cc1` the Potency was “inactive”.
For `CCc1ccc(NCc2cccn2-c2nnc(N3CCCCCC3)s2)cc1`, the Potency was inconclusive: 35.5 µM [inhibitor, single point].
In the case of `COC(=O)c1cc(NC(=O)CN2C(=O)CSC2=O)ccc1Cl`, the Potency was inconclusive: 32.6 µM [activator, partial curve, poor fit].
With `CN1CCN(c2ccc(NC(=O)c3ccc(Oc4ccccc4)cc3)cc2)CC1` the Potency was inconclusive: 35.5 µM [inhibitor, single point].
For `O=C(N/N=C/c1ccc(OCC(=O)N2CCCCC2)cc1)c1ccccc1O`, the Potency was “inactive”.
With `Cc1ccccc1CC(=O)N1CCN(S(=O)(=O)c2ccc(Cl)s2)CC1` the Potency was inconclusive: 0.199 µM [inhibitor, partial curve, poor fit].
In the case of `CC1(C)CC(NC(=O)c2c(N)no[n+]2[O-])CC(C)(C)N1`, the Potency was inconclusive: 5.62 µM [activator, single point].
With `Cc1occc1C(=O)Nc1cccc(C(=O)NCc2ccccc2)c1` the Potency was inconclusive: 9.2 µM [inhibitor, single point].
In the case of `O=C(CCNS(=O)(=O)c1ccccc1)N1CCN(c2ccccc2)CC1`, the Potency was inconclusive: 0.112 µM [inhibitor, full curve, poor fit].
With `O=C(Cn1c(=O)nc(-c2ccccc2)c2cc(Cl)ccc21)NCCc1ccc(Cl)cc1` the Potency was “inactive”.
In the case of `Cn1c(SCC(=O)Nc2ccc3nc(SCC(=O)NC4CC4)sc3c2)nnc1-c1ccccc1`, the Potency was inconclusive: 0.794 µM [activator, full curve, poor fit].
For `COc1cccc(NC(=O)Cn2c(=O)n(-c3ccc(Cl)cc3)c(=O)c3sc4ccccc4c32)c1`, the Potency was “inactive”.
For `O=C(/C=C/c1ccc(F)cc1)NC(=S)Nc1ccccc1`, the Potency was “inactive”.
With `CCOC(=O)/C=C/C(=O)Nc1cc(S(=O)(=O)Nc2ccc(OC)cc2)ccc1N1CCOCC1` the Potency was inconclusive: 17.8 µM [inhibitor, partial curve, poor fit].
In the case of `COc1ccc(NC(=O)OCCn2c([N+](=O)[O-])cnc2C)cc1`, the Potency was inconclusive: 6.31 µM [inhibitor, single point].
With `O=C(CCS(=O)NCc1ccccc1)NCc1ccccc1` (configuration not stated) the Potency was “inactive”.
With `Cc1ccc(CN2CCSc3ccc(C(=O)NCc4ccco4)cc32)cc1` the Potency was inconclusive: 7.94 µM [inhibitor, partial curve, poor fit].
With `Cc1cc(C)nc(N2CCC(C(=O)NCc3cccc(C(F)(F)F)c3)CC2)n1` the Potency was “inactive”.
With `CCC(=O)N1CCc2cc(Br)cc(S(=O)(=O)N3CCCC(C(=O)NCc4ccccc4)C3)c21` (configuration not stated) the Potency was “inactive”.
For `CCOc1ccc(-c2nc(CSc3nnc(N)s3)cs2)cc1OC`, the Potency was inconclusive: 3.98 µM [activator, full curve, poor fit].
In the case of `O=C(CC(=O)N/N=C/c1ccccc1)NCc1ccccc1`, the Potency was “inactive”.
In the case of `Cc1ccc2cc3cc(C(=O)N(CC(=O)NC4CCCC4)c4cccc(C)c4C)sc3nc2c1`, the Potency was inconclusive: 29.1 µM [inhibitor, single point].
In the case of `Cc1cccc(NC(=S)NCc2cccn2C)c1`, the Potency was “inactive”.
In the case of `CCc1ccc2c(CN3CCN(S(=O)(=O)c4cccs4)CC3)cc(=O)oc2c1`, the Potency was inconclusive: 2.24 µM [inhibitor, partial curve, poor fit].
In the case of `CCCCS(=O)(=O)NC1=NCN(CC)CN1`, the Potency was “inactive”.
In the case of `COc1cc(NS(=O)(=O)c2cc(C(=O)N3CCN(C(C)=O)CC3)ccc2OC)cc(OC)c1`, the Potency was inconclusive: 35.5 µM [inhibitor, single point].
In the case of `CCc1cc2c(SCC(=O)N3CCCC3=O)ncnc2s1`, the Potency was inconclusive: 31.6 µM [activator, single point].
With `O=S(=O)(Oc1ccccc1N1CCCCC1)c1ccccc1` the Potency was inconclusive: 10 µM [inhibitor, partial curve, poor fit].
With `CCOC(=O)N/N=C/c1cn(Cc2ccc(Cl)cc2)c2ccccc12` the Potency was inconclusive: 7.94 µM [inhibitor, partial curve].
In the case of `C=CCSc1nc(N)c(C(=O)Nc2ccccc2OC)cc1C(=O)Nc1ccccc1`, the Potency was “inactive”.
With `CCOC(=O)/C=c1\s/c(=C\c2c(OC)ccc3ccccc23)c(=O)n1CC(=O)NCC1CCCO1` (configuration not stated) the Potency was inconclusive: 18.3 µM [inhibitor, partial curve, poor fit].
With `CCN(CC)CCN(C(=O)Cn1nnc(-c2ccc(C)o2)n1)C(C(=O)NC(C)(C)C)c1cccs1` (configuration not stated) the Potency was inconclusive: 7.94 µM [inhibitor, partial curve, poor fit].
For `COc1cccc(-n2nc(C(=O)N3CCN(Cc4ccccc4)CC3)c3ccccc3c2=O)c1`, the Potency was inconclusive: 29.1 µM [inhibitor, single point].
In the case of `Cc1noc(-c2ccc(NCc3ccccc3)c([N+](=O)[O-])c2)n1`, the Potency was “inactive”.
With `O=C(O)c1ccccc1-c1nc2ccccc2n1-c1ccccc1` the Potency was inconclusive: 0.708 µM [activator, full curve, poor fit].
For `CCN(CC)c1ccc(NC(=O)CNCc2ccccc2Cl)c(C)c1`, the Potency was “inactive”.
For `COc1ccc(NC(=O)Cn2c(=O)n(CCc3ccccc3)c(=O)c3ccccc32)cc1`, the Potency was “inactive”.
With `COc1ccc2nc(NC(=O)c3cc(=O)c4ccccc4o3)sc2c1` the Potency was inconclusive: 1.26 µM [activator, full curve, poor fit].
In the case of `COc1cc(SC)ccc1C(=O)NCCCOC(C)C`, the Potency was “inactive”.
In the case of `COc1ccc(NC(=O)Cn2c(=O)n(Cc3ccc(C(=O)NCc4ccccc4Cl)cc3)c(=O)c3ccccc32)cc1OC`, the Potency was inconclusive: 10 µM [inhibitor, partial curve, poor fit].
With `O=C(Nc1ccc(C(=O)O)cc1)Nc1cccc([N+](=O)[O-])c1` the Potency was inconclusive: 2.51 µM [activator, full curve, poor fit].
With `CCCn1c(=O)c2[nH]c(-c3ccc(OCC(=O)Nc4ccc(C#N)cc4)cc3)nc2n(CCC)c1=O` the Potency was inconclusive: 14.1 µM [inhibitor, partial curve, poor fit].
In the case of `COc1ccc(NC(=O)CSc2nc(-c3ccco3)cc(C(F)(F)F)n2)cc1`, the Potency was inconclusive: 11.2 µM [inhibitor, single point].
For `COc1ccc(CCNC(=O)c2cc(-c3ccncc3)nc3c(Cl)cccc23)cc1OC`, the Potency was inconclusive: 35.5 µM [inhibitor, single point].
With `COc1ccc(CC2=C(O)c3ccccc3C(=O)C2=O)cc1` the Potency was inconclusive: 35.5 µM [inhibitor, single point].
In the case of `CC1CN(C(=O)CN2C(=O)NC3(CCCCCC3)C2=O)CC(C)O1` (configuration not stated), the Potency was “inactive”.
With `COc1ccc(Cc2nc3c4c(ncn3n2)Oc2c(ccc3ccccc23)C4c2ccc(OC)c(OC)c2)cc1` (configuration not stated) the Potency was inconclusive: 5.01 µM [inhibitor, partial curve, poor fit].
For `COC(=O)c1ccccc1Sc1c(/C=N/OCc2ccc(Cl)cc2)c(C(F)(F)F)nn1C`, the Potency was inconclusive: 12.6 µM [inhibitor, single point].
With `Cc1cc(=O)[nH]c(SC(C(=O)O)c2ccccc2)n1` (configuration not stated) the Potency was inconclusive: 29.1 µM [activator, single point].
With `CCOC(=O)Cn1nc(/C=C/c2ccc(C(C)C)cc2)ccc1=O` the Potency was inconclusive: 0.631 µM [inhibitor, full curve, poor fit].
In the case of `O=C(Oc1cccc(NC(=O)c2ccco2)c1)c1cccc(S(=O)(=O)N2CCCC2)c1`, the Potency was “inactive”.
In the case of `O=S(=O)(CCN1CCCCC1)CCS(=O)(=O)CCN1CCCCC1`, the Potency was “inactive”.
For `COc1ccc(Cl)cc1NC(=O)CCC(=O)N1CCOc2ccccc21`, the Potency was “inactive”.
With `O=C(COn1nnc2ccccc21)N1CCN(Cc2ccccc2)CC1` the Potency was inconclusive: 11.2 µM [activator, partial curve].
